No constants are given. Whether binding was seen depends on the method and setting. Binding seen in cells or lysates may run through a third protein. Some results given as binding are weak or reduced against the parent protein; the word gives no strength. Values belong to the molecule of their own block, whether it stands above or below them.
Assays:
[1] = target: phosphorylated SLP65, endogenous human (human (endogenous in DG75EB/HA-RhoA)) (UniProt Q8WV28); test: proximity ligation; in situ PLA (Duolink) in DG75EB/HA-RhoA cells, unstimulated or stimulated with anti-IgM F(ab)'2 (3 and 5 min); controls with secondary antibodies only
[2] = target: SLP65 (Src homology containing leucocyte protein of 65 kDa), endogenous human (human (endogenous in DG75EB/HA-RhoA and peripheral blood B cells)) (UniProt Q8WV28); test: as above
[3] = target: SLP65 (Src homology containing leucocyte protein of 65 kDa), endogenous human (human (endogenous in DG75EB/HA-RhoA and peripheral blood B cells)) (UniProt Q8WV28); test: co-IP; endogenous proteins in lysate of DG75EB/HA-RhoA cells, serum starved, stimulated 0, 1, 3, 5 and 10 min with 10 µg/ml anti-human IgM F(ab)'2 at 37°C; IP with anti-SLP65 (anti-BLNK) antibody and Protein G Sepharose; lysis buffer 1 mM EDTA, 50 mM Tris pH 7.5, 150 mM NaCl, 0.1% Triton X-100; immunoblot
[4] = target: T1, SLP65, endogenous mouse (mouse (endogenous in primary B cells)) (UniProt Q9QUN3); test: proximity ligation; in situ PLA (Duolink) in primary B cells isolated by CD19 magnetic sorting: murine bone marrow and spleen, human peripheral blood
T1 sequence: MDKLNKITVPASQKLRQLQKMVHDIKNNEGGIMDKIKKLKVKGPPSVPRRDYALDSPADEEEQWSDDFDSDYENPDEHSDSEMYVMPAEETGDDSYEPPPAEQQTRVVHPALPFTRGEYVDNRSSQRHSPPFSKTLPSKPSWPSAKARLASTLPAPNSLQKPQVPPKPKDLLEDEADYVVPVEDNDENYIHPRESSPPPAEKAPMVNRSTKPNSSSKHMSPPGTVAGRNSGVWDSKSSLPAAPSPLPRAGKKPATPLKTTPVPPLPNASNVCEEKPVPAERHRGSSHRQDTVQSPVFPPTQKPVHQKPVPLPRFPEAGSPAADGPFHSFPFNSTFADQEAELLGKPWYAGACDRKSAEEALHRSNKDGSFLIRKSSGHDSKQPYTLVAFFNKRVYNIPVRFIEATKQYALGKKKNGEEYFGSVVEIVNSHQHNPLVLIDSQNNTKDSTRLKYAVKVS

Protein sequences, listed by entry. Tags and fused reporters are not part of them.
UniProt P61586: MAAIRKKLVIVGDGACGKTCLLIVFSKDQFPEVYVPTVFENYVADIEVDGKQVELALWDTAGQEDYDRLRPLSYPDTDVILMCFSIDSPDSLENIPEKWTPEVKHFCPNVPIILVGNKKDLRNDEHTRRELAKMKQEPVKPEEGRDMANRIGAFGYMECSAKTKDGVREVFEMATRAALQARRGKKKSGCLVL

- binding [1]: binds
- binding [2]: binds
Molecule: HA tagged RHOA in DG75EB/HA-RhoA cells (from UniProt P61586 1-193)

- binding [3]: binds
B1: PLCγ2, endogenous human (protein, UniProt P16885 1-1265)
chain: MSTTVNVDSLAEYEKSQIKRALELGTVMTVFSFRKSTPERRTVQVIMETRQVAWSKTADKIEGFLDIMEIKEIRPGKNSKDFERAKAVRQKEDCCFTILYGTQFVLSTLSLAADSKEDAVNWLSGLKILHQEAMNASTPTIIESWLRKQIYSVDQTRRNSISLRELKTILPLINFKVSSAKFLKDKFVEIGAHKDELSFEQFHLFYKKLMFEQQKSILDEFKKDSSVFILGNTDRPDASAVYLHDFQRFLIHEQQEHWAQDLNKVRERMTKFIDDTMRETAEPFLFVDEFLTYLFSRENSIWDEKYDAVDMQDMNNPLSHYWISSSHNTYLTGDQLRSESSPEAYIRCLRMGCRCIELDCWDGPDGKPVIYHGWTRTTKIKFDDVVQAIKDHAFVTSSFPVILSIEEHCSVEQQRHMAKAFKEVFGDLLLTKPTEASADQLPSPSQLREKIIIKHKKLGPRGDVDVNMEDKKDEHKQQGELYMWDSIDQKWTRHYCAIADAKLSFSDDIEQTMEEEVPQDIPPTELHFGEKWFHKKVEKRTSAEKLLQEYCMETGGKDGTFLVRESETFPNDYTLSFWRSGRVQHCRIRSTMEGGTLKYYLTDNLTFSSIYALIQHYRETHLRCAEFELRLTDPVPNPNPHESKPWYYDSLSRGEAEDMLMRIPRDGAFLIRKREGSDSYAITFRARGKVKHCRINRDGRHFVLGTSAYFESLVELVSYYEKHSLYRKMRLRYPVTPELLERYNMERDINSLYDVSRMYVDPSEINPSMPQRTVKALYDYKAKRSDELSFCRGALIHNVSKEPGGWWKGDYGTRIQQYFPSNYVEDISTADFEELEKQIIEDNPLGSLCRGILDLNTYNVVKAPQGKNQKSFVFILEPKQQGDPPVEFATDRVEELFEWFQSIREITWKIDTKENNMKYWEKNQSIAIELSDLVVYCKPTSKTKDNLENPDFREIRSFVETKADSIIRQKPVDLLKYNQKGLTRVYPKGQRVDSSNYDPFRLWLCGSQMVALNFQTADKYMQMNHALFSLNGRTGYVLQPESMRTEKYDPMPPESQRKILMTLTVKVLGARHLPKLGRSIACPFVEVEICGAEYDNNKFKTTVVNDNGLSPIWAPTQEKVTFEIYDPNLAFLRFVVYEEDMFSDPNFLAHATYPIKAVKSGFRSVPLKNGYSEDIELASLLVFCEMRPVLESEEELYSSCRQLRRRQEELNNQLFLYDTHQNLRNANRDALVKEFSVNENQLQLYQEKCNKRLREKRVSNSKFYS

- binding [4]: binds
B2: GEF-H1, endogenous mouse (protein, UniProt Q60875 1-985)
chain: MSRIESLTRARIDRSKEQATKTREKEKMKEAKDARYTNGHLFTTISVSGMTMCYACNKSITAKEALICPTCNVTIHNRCKDTLANCTKVKQKQQKAALLRNNTALQSVSLRSKTTTRERPTSAIYPSDSFRQSLLGSRRGLSSLSLAKSVSTTNIAGHFNDESPLGLRQILSQSTDSLNMRNRTLSVESLIDEGVEVFYNELMSDFEMDEKDFEADSWSLAVDSSFLQQHKKEVMKKQDVIYELIQTELHHVRTLKIMTRLFRTGMLEELQMEPEVVQGLFPCVDELSDIHTRFLNQLLERRRQALCPGSTRNFVIHRLGDLLISQFSGSNAEQMRKTYSEFCSRHTKALKLYKELYARDKRFQQFIRKMTRSAVLKRHGVQECILLVTQRITKYPVLINRILQNSHGVEEEYQDLASALGLVKELLSNVDQDVHELEKEARLQEIYNRMDPRAQTPVPGKGPFGRDELLRRKLIHEGCLLWKTATGRFKDVLLLLMTDVLVFLQEKDQKYIFTSLDKPSVVSLQNLIVRDIANQAKGMFLISSGPPEMYEVHAASRDDRTTWIRVIQQSVRLCPSREDFPLIETEDKAYLRRIKTKLQQKNQALVELLQKNVELFAEMVHFQALKAGFVGMPPPALPRGLFRLESFESLRGERLLKDALREVEGLKDLLLGPCVDLPMTSREPALPLDSDSGSCPGVTANGEARTFNGSIELCRADSDSSQKDRNGNQLRSPQEEVLQPLINLYGLLHGLQAVVVQQERLMEALFPEGPERWEKLSRANSRDGEAGRAAVASVTPEKQATELALLQRQHTLLQEELRRCQRLGEERATEAGSLEARLRESEQARALLEREAEEIRRQLAALGQNEPLPAEAPWARRPLDPRRRSLPAGDALYLSFNPPQPSRGHDRLDLPVTVRSLHRPFDDREAQELGSPEDRLQDSSDPDTGSEEEVSSRLSPPHSPRDFTRMQDIPEETESRDGEPTASES

Reference: PMC8965026
